# Data source: PubChem BioAssay AID1508587 (Peter MacCallum Cancer Centre, 2020)
# Screen: 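Follow-up of vemurafenib sensitisers scored by lactate made per cell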 (follow-up of hits)
# Cell system: human WM266.4 melanoma cells with a BRAF V600 mutation
# Reagents: single siRNA against human genes, 25 nM
# Timing: 96 h
# Challenge: vemurafenib 300 nM (about IC25), given 48 h after transfection for 48 h
# Detection: 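Per-cell lactate from absorbance divided by DAPI nucleus counts, compared with and without vemurafenib, relative to non-targeting siRNA, mean of 2 replicates; nuclear counts also give cell number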
# Direction: lactate per cell, drug vs no drug: higher = less drug-induced drop in lactate per cell; lactate per cell with vemurafenib: higher = more lactate per cell under drug; lactate per cell without drug: higher = more lactate per cell without drug; cell growth with vemurafenib and cell growth without drug: higher = more cell growth over 48 h
# Rule for the call: 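Enhancer call for any duplex whose drug versus no-drug per-cell lactate ratio is below 0.55 (2 SD beneath non-targeting average); genes confirmed when at least 2 of their 4 duplexes qualify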
# This is a random part of about 1,600 deposited reagents. In the full data, 623 (39%) were called active. 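Calls are for each duplex; lactate ratios contain extreme outliers.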 The numbers tell different reagents against one gene apart.
Gene,reagent no.,"lactate per cell, drug vs no drug",lactate per cell with vemurafenib,lactate per cell without drug,cell growth with vemurafenib,cell growth without drug,call
TCEAL8,1,0.8,1.7,1.33,0.5,0.54,inactive
TCEAL8,2,0.48,1.15,1.5,0.02,0.04,active
TCEAL8,3,0.55,1.34,1.54,0.44,0.39,inactive
TCEAL8,4,0.64,0.82,0.81,0.66,0.79,inactive
TNPO3,1,0.74,1.82,1.66,0.11,0.11,inactive
TNPO3,2,0.26,2.01,5.16,-0.06,-0.07,active
TNPO3,3,0.58,1.06,1.25,0.11,0.12,inactive
TNPO3,4,0.7,0.74,0.72,0.35,0.88,inactive
FSAF1,1,0.65,3.53,3.42,-0.07,0.05,inactive
FSAF1,2,0.59,0.86,0.92,1.14,1.17,inactive
FSAF1,3,0.58,1.73,1.87,-0.06,0.02,inactive
FSAF1,4,0.6,0.95,0.99,0.88,0.99,inactive
ANKRD13C,1,0.59,1.08,1.27,0.74,0.62,inactive
ANKRD13C,2,0.82,2.24,1.86,-0.1,0.05,inactive
ANKRD13C,3,0.61,1.17,1.29,0.41,0.23,inactive
ANKRD13C,4,0.5,0.9,1.23,0.63,0.41,active
USP37,1,0.53,1.92,2.15,0.47,0.36,active
USP37,2,0.52,1.25,1.43,0.08,0.27,active
USP37,3,0.42,1.19,1.65,0.66,0.31,active
USP37,4,0.4,0.52,0.73,0.68,1.2,active
ING3,1,0.43,0.72,1.15,-0.04,0.06,active
ING3,2,0.34,0.24,0.5,-0.13,0.19,active
ING3,3,0.42,0.87,1.43,0.17,0.15,active
ING3,4,0.57,1.84,2.21,0.09,0.11,inactive

An excerpt of the results above, for reference:
Gene,reagent no.,"lactate per cell, drug vs no drug",lactate per cell with vemurafenib,lactate per cell without drug,cell growth with vemurafenib,cell growth without drug,call
USP37,2,0.52,1.25,1.43,0.08,0.27,active
USP37,3,0.42,1.19,1.65,0.66,0.31,active
USP37,4,0.4,0.52,0.73,0.68,1.2,active
ING3,1,0.43,0.72,1.15,-0.04,0.06,active

Additional reagents follow.
Gene,reagent no.,"lactate per cell, drug vs no drug",lactate per cell with vemurafenib,lactate per cell without drug,cell growth with vemurafenib,cell growth without drug,call
HSPB6,1,0.48,1.23,1.62,0.64,0.34,active
HSPB6,2,0.53,1.54,1.81,0.1,0.02,active
HSPB6,3,0.54,3,3.37,0.06,-0.05,active
HSPB6,4,0.43,0.38,0.55,0.47,0.47,active
NUP37,1,0.58,0.66,0.74,0.26,0.38,inactive
NUP37,2,0.64,1.04,1.04,0.56,0.73,inactive
NUP37,3,0.6,0.97,1.04,0.89,0.83,inactive
NUP37,4,0.6,0.86,0.93,1.16,1.13,inactive
TMED9,1,0.64,1.01,1.09,0.22,0.62,inactive
TMED9,2,0.43,1.1,1.83,0.64,0.27,active
TMED9,3,0.58,1.54,1.79,0.1,0.14,inactive
TMED9,4,0.48,1.29,1.85,0.29,0.12,active
PARVA,1,0.61,1.42,1.62,0.33,0.23,inactive
PARVA,2,0.5,0.7,0.94,0.43,0.22,active
PARVA,3,0.86,1.37,1.12,-0.04,0.06,inactive
PARVA,4,0.54,0.94,1.17,1.06,0.57,active
MAPK13,1,0.65,4.47,4.34,0.08,0.01,inactive
MAPK13,2,0.57,0.77,0.86,0.98,1.19,inactive
MAPK13,3,0.58,1.12,1.22,0.79,0.62,inactive
MAPK13,4,0.57,0.82,0.94,0.43,0.79,inactive
ZCWPW1,1,0.44,1.08,1.75,0.34,0.28,active
ZCWPW1,2,0.61,2.5,3,0.31,0.18,inactive
ZCWPW1,3,0.72,1.06,1.07,1.03,0.81,inactive
ZCWPW1,4,0.55,0.78,1.02,1.03,0.95,inactive
KRTAP2-4,1,0.62,2.36,2.78,-0.04,-0.03,inactive
KRTAP2-4,2,0.62,1.12,1.12,1.44,1.1,inactive
KRTAP2-4,3,0.57,2.02,2.2,0.03,0.05,inactive
KRTAP2-4,4,0.55,2.96,3.34,0.06,-0.08,inactive
